The target in one assay is HaloTag-DUX4term (human) (UniProt Q9UBX2). The experiment in a line: affinity purification with mass spectrometry; HaloTag fusions expressed in human muscle cells (TE671 in S1 Fig); extract bound to HaloLink resin 96 h at 4 °C in 50 mM HEPES pH 7.5, 150 mM NaCl, 0.5 mM EDTA, 0.005% Igepal; release by TEV; LC-MS/MS; proteins found with HaloTag-eGFP removed; at least 2 peptides.

Protein sequences, listed by entry. Tags and fused reporters are not part of them. Lines headed by an entry give the natural chain unless they say otherwise; changes in a name come on top. Chains listed by the source or under a name are the forms on record and can include a tag or linker. Residues count along the entry.
UniProt Q07021, residues 74-282: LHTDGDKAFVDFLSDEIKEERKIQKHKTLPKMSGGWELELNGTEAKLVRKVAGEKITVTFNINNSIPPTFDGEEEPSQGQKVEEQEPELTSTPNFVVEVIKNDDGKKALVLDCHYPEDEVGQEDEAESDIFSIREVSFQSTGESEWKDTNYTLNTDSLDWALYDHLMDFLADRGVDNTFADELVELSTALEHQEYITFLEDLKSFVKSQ
UniProt P35637: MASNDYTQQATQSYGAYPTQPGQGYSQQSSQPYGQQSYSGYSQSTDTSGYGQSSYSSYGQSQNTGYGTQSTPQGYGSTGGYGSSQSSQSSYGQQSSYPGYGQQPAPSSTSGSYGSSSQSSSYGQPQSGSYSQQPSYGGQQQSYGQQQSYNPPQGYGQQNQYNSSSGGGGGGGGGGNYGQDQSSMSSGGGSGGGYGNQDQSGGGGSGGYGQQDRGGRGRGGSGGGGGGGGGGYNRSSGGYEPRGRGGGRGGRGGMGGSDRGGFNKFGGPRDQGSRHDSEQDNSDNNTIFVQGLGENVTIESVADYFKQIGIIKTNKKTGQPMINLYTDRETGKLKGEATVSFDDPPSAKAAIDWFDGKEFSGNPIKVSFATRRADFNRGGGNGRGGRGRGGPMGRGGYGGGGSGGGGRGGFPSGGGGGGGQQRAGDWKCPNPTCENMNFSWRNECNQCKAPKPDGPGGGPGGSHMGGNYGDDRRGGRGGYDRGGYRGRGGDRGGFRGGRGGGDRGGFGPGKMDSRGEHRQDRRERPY
UniProt Q12905: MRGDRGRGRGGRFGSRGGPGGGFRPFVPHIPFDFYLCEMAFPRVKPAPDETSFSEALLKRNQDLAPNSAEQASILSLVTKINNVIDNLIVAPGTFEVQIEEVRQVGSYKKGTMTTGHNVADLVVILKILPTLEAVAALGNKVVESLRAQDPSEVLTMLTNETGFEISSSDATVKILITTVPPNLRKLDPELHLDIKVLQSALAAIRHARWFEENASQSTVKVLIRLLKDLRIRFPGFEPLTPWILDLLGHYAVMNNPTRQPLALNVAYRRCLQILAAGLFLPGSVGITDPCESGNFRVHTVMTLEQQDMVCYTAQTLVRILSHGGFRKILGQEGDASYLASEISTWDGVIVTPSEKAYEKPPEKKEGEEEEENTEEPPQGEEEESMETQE
Lamin C, endogenous (P02545-2, form named): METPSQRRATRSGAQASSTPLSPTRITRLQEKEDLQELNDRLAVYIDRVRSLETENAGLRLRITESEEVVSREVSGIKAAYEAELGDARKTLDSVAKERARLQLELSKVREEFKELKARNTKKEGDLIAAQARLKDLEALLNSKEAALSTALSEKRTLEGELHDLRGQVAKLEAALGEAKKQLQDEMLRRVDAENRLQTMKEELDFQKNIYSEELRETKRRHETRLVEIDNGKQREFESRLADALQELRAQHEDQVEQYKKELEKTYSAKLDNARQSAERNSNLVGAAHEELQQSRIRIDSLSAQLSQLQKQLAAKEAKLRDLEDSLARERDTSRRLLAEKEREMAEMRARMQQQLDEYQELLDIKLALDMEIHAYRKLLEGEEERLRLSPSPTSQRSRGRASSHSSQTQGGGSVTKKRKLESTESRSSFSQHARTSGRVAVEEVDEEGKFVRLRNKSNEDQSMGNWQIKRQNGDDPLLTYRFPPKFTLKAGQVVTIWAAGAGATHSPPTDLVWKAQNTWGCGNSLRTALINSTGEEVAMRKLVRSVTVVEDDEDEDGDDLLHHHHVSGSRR
UniProt P35579: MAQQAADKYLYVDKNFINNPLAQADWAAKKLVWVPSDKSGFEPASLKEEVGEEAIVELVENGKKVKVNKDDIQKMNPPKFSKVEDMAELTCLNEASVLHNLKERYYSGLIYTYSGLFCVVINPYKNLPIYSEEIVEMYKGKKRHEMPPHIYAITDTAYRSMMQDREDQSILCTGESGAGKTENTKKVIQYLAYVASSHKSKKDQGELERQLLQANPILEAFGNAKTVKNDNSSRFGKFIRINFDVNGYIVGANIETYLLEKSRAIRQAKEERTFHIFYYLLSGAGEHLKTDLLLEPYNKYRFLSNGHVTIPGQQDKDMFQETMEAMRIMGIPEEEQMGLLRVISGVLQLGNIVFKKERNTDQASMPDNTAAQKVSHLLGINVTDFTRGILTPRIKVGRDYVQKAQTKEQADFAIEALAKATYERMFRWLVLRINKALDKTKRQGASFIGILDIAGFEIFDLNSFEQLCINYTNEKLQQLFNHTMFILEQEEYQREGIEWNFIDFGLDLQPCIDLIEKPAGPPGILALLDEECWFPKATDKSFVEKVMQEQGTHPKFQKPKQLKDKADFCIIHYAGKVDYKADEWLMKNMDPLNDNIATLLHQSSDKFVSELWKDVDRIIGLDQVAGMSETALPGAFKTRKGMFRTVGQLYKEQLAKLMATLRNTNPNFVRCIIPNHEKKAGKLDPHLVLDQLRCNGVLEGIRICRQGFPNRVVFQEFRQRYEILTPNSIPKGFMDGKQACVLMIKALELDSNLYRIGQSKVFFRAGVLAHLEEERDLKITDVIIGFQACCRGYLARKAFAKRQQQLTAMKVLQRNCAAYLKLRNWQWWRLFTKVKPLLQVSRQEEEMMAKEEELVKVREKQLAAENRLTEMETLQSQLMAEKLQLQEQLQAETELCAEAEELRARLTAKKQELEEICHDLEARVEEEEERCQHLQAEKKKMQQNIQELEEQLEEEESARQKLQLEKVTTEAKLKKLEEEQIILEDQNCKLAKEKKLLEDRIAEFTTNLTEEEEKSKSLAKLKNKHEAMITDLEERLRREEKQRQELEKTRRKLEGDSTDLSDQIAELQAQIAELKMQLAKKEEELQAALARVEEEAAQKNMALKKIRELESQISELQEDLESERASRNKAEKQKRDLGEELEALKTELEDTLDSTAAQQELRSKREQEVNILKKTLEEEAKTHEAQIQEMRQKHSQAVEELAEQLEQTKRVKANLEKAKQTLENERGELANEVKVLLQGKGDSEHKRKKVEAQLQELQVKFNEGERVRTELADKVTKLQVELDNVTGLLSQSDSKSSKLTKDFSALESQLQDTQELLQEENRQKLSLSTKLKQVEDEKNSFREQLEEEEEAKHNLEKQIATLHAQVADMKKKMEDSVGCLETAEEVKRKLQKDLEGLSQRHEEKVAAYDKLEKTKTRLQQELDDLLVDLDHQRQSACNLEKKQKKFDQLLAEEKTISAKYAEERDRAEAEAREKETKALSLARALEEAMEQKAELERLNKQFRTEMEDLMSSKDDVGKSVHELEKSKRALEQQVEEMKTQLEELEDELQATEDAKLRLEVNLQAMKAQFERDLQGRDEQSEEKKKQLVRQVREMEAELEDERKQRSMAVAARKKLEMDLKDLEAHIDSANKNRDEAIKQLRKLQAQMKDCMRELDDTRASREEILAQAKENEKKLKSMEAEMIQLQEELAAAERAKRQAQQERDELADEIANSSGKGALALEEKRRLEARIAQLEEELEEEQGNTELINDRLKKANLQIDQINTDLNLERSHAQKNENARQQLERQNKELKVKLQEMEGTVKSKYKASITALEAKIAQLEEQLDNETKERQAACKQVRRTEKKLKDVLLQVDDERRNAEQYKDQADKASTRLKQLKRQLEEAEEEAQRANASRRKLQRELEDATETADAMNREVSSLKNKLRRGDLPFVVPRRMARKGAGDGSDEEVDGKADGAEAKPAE
UniProt P55060: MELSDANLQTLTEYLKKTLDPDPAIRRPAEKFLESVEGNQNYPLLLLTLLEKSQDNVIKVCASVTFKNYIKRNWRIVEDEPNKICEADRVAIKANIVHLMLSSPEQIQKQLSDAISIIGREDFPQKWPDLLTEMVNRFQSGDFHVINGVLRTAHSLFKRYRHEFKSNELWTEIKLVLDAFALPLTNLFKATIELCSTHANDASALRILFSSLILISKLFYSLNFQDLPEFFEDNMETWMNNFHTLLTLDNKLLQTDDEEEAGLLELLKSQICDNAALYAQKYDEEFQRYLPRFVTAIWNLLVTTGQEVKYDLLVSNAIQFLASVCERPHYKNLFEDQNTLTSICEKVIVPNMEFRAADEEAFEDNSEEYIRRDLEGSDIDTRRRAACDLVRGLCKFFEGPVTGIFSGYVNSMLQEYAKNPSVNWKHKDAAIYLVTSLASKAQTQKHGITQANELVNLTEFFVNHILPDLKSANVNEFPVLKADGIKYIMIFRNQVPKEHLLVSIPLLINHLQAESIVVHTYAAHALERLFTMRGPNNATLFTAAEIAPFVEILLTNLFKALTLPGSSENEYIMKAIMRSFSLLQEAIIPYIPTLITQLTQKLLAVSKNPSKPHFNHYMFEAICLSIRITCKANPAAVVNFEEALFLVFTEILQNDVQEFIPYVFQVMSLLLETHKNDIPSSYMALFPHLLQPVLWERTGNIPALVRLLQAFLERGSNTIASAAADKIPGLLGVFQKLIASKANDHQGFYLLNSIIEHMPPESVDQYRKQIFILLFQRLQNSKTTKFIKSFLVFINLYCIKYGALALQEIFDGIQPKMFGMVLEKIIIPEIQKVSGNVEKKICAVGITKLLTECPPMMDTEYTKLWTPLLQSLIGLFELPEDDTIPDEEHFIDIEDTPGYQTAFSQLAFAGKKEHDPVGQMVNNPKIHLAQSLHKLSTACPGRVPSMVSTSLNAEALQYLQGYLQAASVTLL

Assay [1] has as its target HaloTag-DUX4 (human) (UniProt Q9UBX2). The description is as above.
The next assay has as its target HaloTag-DUX4c (human) (UniProt Q6RFH8). Described as above.
Assay [2] addresses Glutathione-S-transferase (GST)-tagged DUX4 (pGEX-6p-1) (human) (UniProt Q9UBX2). The experiment in a line: affinity purification with mass spectrometry; purified GST-DUX4 and Glutathione Sepharose 4B with 500 μg DNase-treated lysate of HEK293 cells or human myoblasts overnight at 4 °C in 150 mM NaCl, 5 mM MgCl2, 1 mM DTT, 25 mM Hepes pH 7.5; tandem MS of whole lanes; partners of GST omitted; at least 2 peptides; only the target purified.

Assay [3] deals with DUX4 (bait of a co-purification or pull-down with mass spectrometry; HaloTag-DUX4 or GST-DUX4, not told which) (human) (UniProt Q9UBX2). In words: affinity purification with mass spectrometry; putative partners named in the text without the method; they are in none of the two-hybrid tables, so HaloTag co-purification or GST-DUX4 pull-down (lists in S3 and S4 Tables).
For assay [4] the target is unchanged. The description is as above. The source holds these as a separate data set.
The target of assay [5] is HaloTag-DUX4 (human) (UniProt Q9UBX2). In words: affinity purification with mass spectrometry; HaloTag fusions expressed in human muscle cells (TE671 in S1 Fig); extract bound to HaloLink resin 96 h at 4 °C in 50 mM HEPES pH 7.5, 150 mM NaCl, 0.5 mM EDTA, 0.005% Igepal; release by TEV; LC-MS/MS; proteins found with HaloTag-eGFP removed; at least 2 peptides. The source holds these as a separate data set.

Read-outs that look alike come from different tables or passages of the source. These are yes or no findings as the source states them, for the method shown. Binding seen in cells or lysates may run through a third protein. A yes stands for co-enrichment or nearness to the bait. Other partners may have been found. For some of these results: A no says only that the protein was not detected with the bait.

Turning to “C1QBP, endogenous in human cells (from UniProt Q07021 74-282)”, the binding entry with HaloTag-DUX4term (human) was “no binding”; with HaloTag-DUX4 (human) [1] it was “binds”; with HaloTag-DUX4c (human) it was “binds”; in assay [2], “binds”.

With “FUS, endogenous in human muscle cells (from UniProt P35637 1-526)”, the binding entry with HaloTag-DUX4 (human) [1] and in the assay with HaloTag-DUX4c (human) was “binds” in each case.

Take “ILF2, endogenous (from UniProt Q12905 1-390)”: the binding entry in assay [3] is recorded as “binds”.

As for “Lamin C, endogenous (from UniProt P02545-2 1-572)”, the binding result in assay [3] is given as “binds”.

With “MYH9 (MYH II-A), endogenous (from UniProt P35579 1-1960)”, in the assay with HaloTag-DUX4 (human) [1], the binding entry is listed as “binds”.

For “MYH10/NMMH II-B, endogenous (from UniProt P35580 1-1976)”, the binding result in the assay with HaloTag-DUX4 (human) [1] was “binds”.

Take “desmin, endogenous in human muscle cells (from UniProt P17661 1-470)”: the binding entry with HaloTag-DUX4 (human) [1] was “binds”.

Consider “exportin 2, endogenous (from UniProt P55060 1-971)”, for which the binding result in assay [3] was “binds”.

B1: ILF3, endogenous (protein, UniProt Q12906 1-894)
chain: MRPMRIFVNDDRHVMAKHSSVYPTQEELEAVQNMVSHTERALKAVSDWIDEQEKGSSEQAESDNMDVPPEDDSKEGAGEQKTEHMTRTLRGVMRVGLVAKGLLLKGDLDLELVLLCKEKPTTALLDKVADNLAIQLAAVTEDKYEILQSVDDAAIVIKNTKEPPLSLTIHLTSPVVREEMEKVLAGETLSVNDPPDVLDRQKCLAALASLRHAKWFQARANGLKSCVIVIRVLRDLCTRVPTWGPLRGWPLELLCEKSIGTANRPMGAGEALRRVLECLASGIVMPDGSGIYDPCEKEATDAIGHLDRQQREDITQSAQHALRLAAFGQLHKVLGMDPLPSKMPKKPKNENPVDYTVQIPPSTTYAITPMKRPMEEDGEEKSPSKKKKKIQKKEEKAEPPQAMNALMRLNQLKPGLQYKLVSQTGPVHAPIFTMSVEVDGNSFEASGPSKKTAKLHVAVKVLQDMGLPTGAEGRDSSKGEDSAEETEAKPAVVAPAPVVEAVSTPSAAFPSDATAEQGPILTKHGKNPVMELNEKRRGLKYELISETGGSHDKRFVMEVEVDGQKFQGAGSNKKVAKAYAALAALEKLFPDTPLALDANKKKRAPVPVRGGPKFAAKPHNPGFGMGGPMHNEVPPPPNLRGRGRGGSIRGRGRGRGFGGANHGGYMNAGAGYGSYGYGGNSATAGYSQFYSNGGHSGNASGGGGGGGGGSSGYGSYYQGDNYNSPVPPKHAGKKQPHGGQQKPSYGSGYQSHQGQQQSYNQSPYSNYGPPQGKQKGYNHGQGSYSYSNSYNSPGGGGGSDYNYESKFNYSGSGGRSGGNSYGSGGASYNPGSHGGYGGGSGGGSSYQGKQGGYSQSNYNSPGSGQNYSGPPSSYQSSQGGYGRNADHSMNYQYR
As for B1, in assay [4], the binding entry is reported as “binds”.

B2: SRSF5/SRp40, endogenous (protein, UniProt Q13243 1-272)
chain: MSGCRVFIGRLNPAAREKDVERFFKGYGRIRDIDLKRGFGFVEFEDPRDADDAVYELDGKELCSERVTIEHARARSRGGRGRGRYSDRFSSRRPRNDRRNAPPVRTENRLIVENLSSRVSWQDLKDFMRQAGEVTFADAHRPKLNEGVVEFASYGDLKNAIEKLSGKEINGRKIKLIEGSKRHSRSRSRSRSRTRSSSRSRSRSRSRSRKSYSRSRSRSRSRSRSKSRSVSRSPVPEKSQKRGSSSRSKSPASVDRQRSRSRSRSRSVDSGN
For the molecule B2, the binding result in assay [4] is on record as “binds”.

B3: NONO, endogenous (protein, UniProt Q15233 1-471)
chain: MQSNKTFNLEKQNHTPRKHHQHHHQQQHHQQQQQQPPPPPIPANGQQASSQNEGLTIDLKNFRKPGEKTFTQRSRLFVGNLPPDITEEEMRKLFEKYGKAGEVFIHKDKGFGFIRLETRTLAEIAKVELDNMPLRGKQLRVRFACHSASLTVRNLPQYVSNELLEEAFSVFGQVERAVVIVDDRGRPSGKGIVEFSGKPAARKALDRCSEGSFLLTTFPRPVTVEPMDQLDDEEGLPEKLVIKNQQFHKEREQPPRFAQPGSFEYEYAMRWKALIEMEKQQQDQVDRNIKEAREKLEMEMEAARHEHQVMLMRQDLMRRQEELRRMEELHNQEVQKRKQLELRQEEERRRREEEMRRQQEEMMRRQQEGFKGTFPDAREQEIRMGQMAMGGAMGINNRGAMPPAPVPAGTPAPPGPATMMPDGTLGLTPPTTERFGQAATMEGIGAIGGTPPAFNRAAPGAEFAPNKRRRY
Regarding B3, the binding entry in the assay with HaloTag-DUX4 (human) [5] is listed as “binds”.

B4: SRSF3/SRp20, endogenous (protein, UniProt P84103 1-164)
chain: MHRDSCPLDCKVYVGNLGNNGNKTELERAFGYYGPLRSVWVARNPPGFAFVEFEDPRDAADAVRELDGRTLCGCRVRVELSNGEKRSRNRGPPPSWGRRPRDDYRRRSPPPRRRSPRRRSFSRSRSRSLSRDRRRERSLSRERNHKPSRSFSRSRSRSRSNERK
Consider B4, for which the binding result in assay [4] is “binds”.

These data come from publication PMC4729438.
